## Library screen at single concentrations

By UniProt entry, the sequences of proteins in these tests, tags left out. Residues count along the entry.
UniProt Q4DA54, 1-478: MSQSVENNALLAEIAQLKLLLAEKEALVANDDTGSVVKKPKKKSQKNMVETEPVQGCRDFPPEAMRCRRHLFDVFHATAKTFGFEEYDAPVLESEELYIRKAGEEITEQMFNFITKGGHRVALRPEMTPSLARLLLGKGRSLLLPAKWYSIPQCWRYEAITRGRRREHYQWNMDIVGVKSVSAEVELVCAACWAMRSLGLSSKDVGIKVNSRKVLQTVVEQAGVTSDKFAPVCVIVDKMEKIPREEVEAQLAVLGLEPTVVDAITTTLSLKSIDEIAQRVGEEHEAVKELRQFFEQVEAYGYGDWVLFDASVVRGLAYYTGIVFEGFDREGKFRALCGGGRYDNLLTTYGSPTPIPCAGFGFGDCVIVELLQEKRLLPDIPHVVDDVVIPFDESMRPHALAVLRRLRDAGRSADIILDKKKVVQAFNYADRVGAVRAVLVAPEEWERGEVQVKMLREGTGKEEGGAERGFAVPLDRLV
UniProt P9WPC5, whole entry: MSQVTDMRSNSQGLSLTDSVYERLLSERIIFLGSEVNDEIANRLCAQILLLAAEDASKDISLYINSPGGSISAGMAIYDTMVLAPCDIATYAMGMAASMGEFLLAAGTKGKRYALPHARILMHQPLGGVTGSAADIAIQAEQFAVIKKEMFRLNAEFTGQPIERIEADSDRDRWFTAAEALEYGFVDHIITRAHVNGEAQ
UniProt P9WPC3, whole entry partner: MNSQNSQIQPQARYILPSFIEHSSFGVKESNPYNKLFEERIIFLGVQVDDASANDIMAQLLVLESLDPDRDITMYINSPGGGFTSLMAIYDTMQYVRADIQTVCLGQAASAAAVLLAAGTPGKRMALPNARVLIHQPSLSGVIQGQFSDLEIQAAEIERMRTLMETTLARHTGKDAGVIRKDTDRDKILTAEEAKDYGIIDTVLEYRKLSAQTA
UniProt Q8IDJ8, 1-583: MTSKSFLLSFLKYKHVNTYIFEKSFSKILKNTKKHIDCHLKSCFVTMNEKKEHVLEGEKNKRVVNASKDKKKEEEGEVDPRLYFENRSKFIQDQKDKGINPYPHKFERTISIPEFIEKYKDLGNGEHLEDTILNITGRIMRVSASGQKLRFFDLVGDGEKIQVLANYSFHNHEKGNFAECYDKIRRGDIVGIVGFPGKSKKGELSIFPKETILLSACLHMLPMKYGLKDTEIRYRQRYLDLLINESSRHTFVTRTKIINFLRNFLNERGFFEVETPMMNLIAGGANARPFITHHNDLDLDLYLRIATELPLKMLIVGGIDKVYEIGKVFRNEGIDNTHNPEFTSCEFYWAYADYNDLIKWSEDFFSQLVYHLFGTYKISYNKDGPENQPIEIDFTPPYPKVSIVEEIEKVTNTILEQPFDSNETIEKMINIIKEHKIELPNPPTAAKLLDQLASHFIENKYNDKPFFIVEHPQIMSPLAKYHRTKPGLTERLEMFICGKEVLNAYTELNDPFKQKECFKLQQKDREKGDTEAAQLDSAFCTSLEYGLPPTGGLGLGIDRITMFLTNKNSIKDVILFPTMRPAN

From ChEMBL document CHEMBL3988442, “University of Dundee, Small-Polar-MMV Screening Library” (2021).

Values are the deposited “Percent Effect”, in %. How 0% and 100% were set is not recorded. Most values in the screen are low, and negative values occur. Compounds were drawn at random from those tested, without regard to their results. A dash means the value is not listed here; it may have been measured.

Leishmania in macrophages: 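Cell assay of Leishmania donovani living inside macrophages; the read-out is not stated. Compounds at 30 µM. Higher reads as stronger inhibition (inferred: compounds with an IC50 in retests scored well above the rest). About 69,000 compounds were tested under these conditions; 1.5% (about 1,000) showed 50% or more at least once.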
TcHisRS: 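Enzyme assay of histidyl-tRNA synthetase; the read-out is not stated. Target: Histidine-tRNA ligase, Trypanosoma cruzi CL Brener (UniProt Q4DA54). Concentration: 30 µM. Direction is inferred from retests: higher values go with stronger inhibition. Size under these conditions: about 69,000 compounds, about 31 of them at 50% or above in at least one test.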
ClpP1P2: 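Protease assay of ClpP1P2, read by the AMC dye that it sets free. Target: ClpP1P2, Mycobacterium tuberculosis (UniProt P9WPC5 and UniProt P9WPC3). Tested at 50 µM. Higher reads as stronger inhibition, judged from the few compounds that gave an IC50. Most other retested compounds had strongly negative values. Of about 69,000 compounds tested this way, about 10 (0.015%) reached 50% or more in at least one test.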
Toxoplasma: 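Assay of Toxoplasma gondii numbers, read through their beta-galactosidase reporter with a colour substrate. Compounds at 10 µM. Higher reads as fewer parasites (inferred from which compounds were picked for retests). Size under these conditions: about 67,000 compounds, about 260 of them at 50% or above in at least one test.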
PfKRS1: 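Enzyme assay of the cytosolic lysyl-tRNA synthetase in 384-well plates, read by luminescence. Target: Lysine-tRNA ligase, Plasmodium falciparum 3D7 (UniProt Q8IDJ8). Tested at 30 µM. Direction is inferred from only a few compounds that gave an IC50; most scored high, so higher reads as stronger inhibition. Size under these conditions: about 69,000 compounds, about 49 of them at 50% or above in at least one test.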

{"structure": "CN(C)c1ncc(-c2c(-c3ccccc3)ncn2C(CO)C(=O)O)cn1", "stereo": "stereo unspecified", "Leishmania in macrophages": 25.77, "TcHisRS": 5.882, "ClpP1P2": 0.4096, "Toxoplasma": -1.935, "PfKRS1": 2.747}
{"structure": "Cc1nncn1CCNC(=O)C(C)(C)c1cccc(Cl)c1", "Leishmania in macrophages": 0.09393, "TcHisRS": 4.202, "ClpP1P2": 0.02955, "Toxoplasma": -2.881, "PfKRS1": 1.63}
{"structure": "O=C(O)C(F)(F)F.[H][C@]12CCN(C(=O)c3cccc(OC)c3)CC[C@@]1([H])S(=O)(=O)CCN2C", "Leishmania in macrophages": 5.699, "Toxoplasma": -3.709}
{"structure": "CC(C)NC(=O)C1CN(C(=O)Nc2ccc(F)cc2)CC12CCOCC2", "stereo": "stereo unspecified", "Leishmania in macrophages": 18.44, "TcHisRS": 9.244, "ClpP1P2": 3.134, "Toxoplasma": -10.53, "PfKRS1": 4.163}
{"structure": "CCC(Nc1nc(C(C)C)nc2c1cnn2C)c1ccncc1", "stereo": "stereo unspecified", "Leishmania in macrophages": -9.678, "TcHisRS": -0.5618, "ClpP1P2": -4.255, "Toxoplasma": 4.924, "PfKRS1": 3.805}
{"structure": "COc1ccc(CCNCc2c(C)nn(C)c2N(C)C)cc1OC.Cl", "Leishmania in macrophages": 15.07, "Toxoplasma": 13.6}
{"structure": "COc1cccc(S(=O)(=O)NC(=O)CCC2CCCC2)c1", "Leishmania in macrophages": -1.647, "TcHisRS": 4.023, "ClpP1P2": 15.29, "Toxoplasma": -6.88, "PfKRS1": 0.3301}
{"structure": "CCOC(CC)C(=O)NCCC(=O)N1CCN(c2ncccn2)CC1", "stereo": "stereo unspecified", "Leishmania in macrophages": 19.98, "TcHisRS": 1.087, "ClpP1P2": -0.5212, "Toxoplasma": 1.056, "PfKRS1": -0.2205}
{"structure": "Cc1ccc(NC(=O)c2n[nH]c(-n3cnnc3)n2)cc1", "Leishmania in macrophages": 53.89, "TcHisRS": 5.217, "ClpP1P2": -2.327, "Toxoplasma": 5.724, "PfKRS1": 1.182}
{"structure": "CC(NS(C)(=O)=O)C(=O)N1CCCN(Cc2cscn2)CC1", "stereo": "stereo unspecified", "Leishmania in macrophages": 6.422, "TcHisRS": 5.882, "ClpP1P2": -17.68, "Toxoplasma": -29.9, "PfKRS1": 1.468}
{"structure": "Cn1cc(C2CCCN2C(=O)CCCc2cccs2)cn1", "stereo": "stereo unspecified", "Leishmania in macrophages": 12.31, "TcHisRS": 5.848, "ClpP1P2": -1.437, "Toxoplasma": 7.754, "PfKRS1": 0.1977}
{"structure": "O=S(=O)(Nc1ccccn1)c1cc(Cl)cc2c1OCC2", "Leishmania in macrophages": -4.989, "TcHisRS": 3.665, "ClpP1P2": -12.65, "Toxoplasma": 0.641, "PfKRS1": 1.415}
{"structure": "CN(C)[C@@H]1CN(Cc2ccoc2)C[C@@H]2CCCO[C@@H]21", "TcHisRS": 8.197, "ClpP1P2": -8.27, "PfKRS1": 3.942}
{"structure": "Cc1ncc(C)c(N2CCC(CCc3ccccc3)(C(=O)O)CC2)n1", "Leishmania in macrophages": 15.72, "TcHisRS": 11.49, "ClpP1P2": -9.46, "PfKRS1": 2.597}
{"structure": "CCC(C)(NCC(=O)N(c1ccccc1)C(C)C)c1nc(C)cs1", "stereo": "stereo unspecified", "Leishmania in macrophages": 6.94, "TcHisRS": 1.695, "ClpP1P2": 9.339, "Toxoplasma": -1.861, "PfKRS1": -7.436}
{"structure": "O=C(NCC(=O)N1CCN(c2ccccc2)CC1)c1sccc1C1CC1", "Leishmania in macrophages": 28.92, "TcHisRS": 4.762, "ClpP1P2": -3.365, "Toxoplasma": 2.826, "PfKRS1": 0.7511}
{"structure": "Cn1ccc2cc(C(=O)NC3CCOC(C)(C)C3)ccc21", "stereo": "stereo unspecified", "Leishmania in macrophages": 1.812, "TcHisRS": 4.167, "ClpP1P2": -9.614, "Toxoplasma": 12.91, "PfKRS1": 0.45}
{"structure": "COc1ncccc1NC(=O)NC1CCCN(c2ncccn2)C1", "stereo": "stereo unspecified", "Leishmania in macrophages": 16.8, "TcHisRS": 2.564, "ClpP1P2": -10.3, "Toxoplasma": 5.91, "PfKRS1": 0.4823}
{"structure": "O=C1CC2(CCN(Cc3ccc(-c4ccn[nH]4)s3)CC2)CN1", "Leishmania in macrophages": 17.76, "TcHisRS": 3.279, "ClpP1P2": -20.73, "Toxoplasma": 13.18, "PfKRS1": -2.162}
{"structure": "CN(C(=O)CCc1ccncc1)C1CCCN(CCc2ccccc2)C1", "stereo": "stereo unspecified", "Leishmania in macrophages": -88.85, "TcHisRS": 1.163, "ClpP1P2": -2.191, "Toxoplasma": -0.7536, "PfKRS1": 2.792}
{"structure": "CC(=O)N1[C@H](CN(C)C)C[C@@H]2CN(C(=O)c3cnc(C)cn3)CC[C@@H]21", "TcHisRS": 2.913, "ClpP1P2": 5.494, "PfKRS1": 2.092}
{"structure": "O=C(C1CCOCC1)N1CCc2onc(COc3cccnc3)c2C1", "TcHisRS": 0.9804, "ClpP1P2": 1.821, "PfKRS1": 7.703}
{"structure": "CN1CCNC(=O)C12CCN(Cc1ccco1)CC2.O=C(O)C(F)(F)F.O=C(O)C(F)(F)F", "Leishmania in macrophages": 23.48, "Toxoplasma": -9.941}
{"structure": "Nc1nc2c(c(NCc3nccs3)n1)CCN(CC1CCCC1)CC2", "Leishmania in macrophages": -24.34, "TcHisRS": 12.44, "ClpP1P2": -21.74, "Toxoplasma": 47.07, "PfKRS1": -4.16}

For reference, 2 entries once more:

structure	Leishmania in macrophages	TcHisRS	ClpP1P2	Toxoplasma	PfKRS1
CC(=O)N1[C@H](CN(C)C)C[C@@H]2CN(C(=O)c3cnc(C)cn3)CC[C@@H]21	-	2.913	5.494	-	2.092
CCC(C)(NCC(=O)N(c1ccccc1)C(C)C)c1nc(C)cs1 (stereo unspecified)	6.94	1.695	9.339	-1.861	-7.436